According to the supplement of paper PMC12889115:
Some of the results follow. Values are raw readings; no control value is given beside them.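 Primary screen: polymyxin B was added at a level permeabilizing Salmonella outer membranes while sparing inner membranes. DMSO wells, both with and without polymyxin B, established maximum growth. Plate-to-plate variation meant each plate was ranked on its own, and the lowest-OD600 compounds were selected as hits.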

Test system: Salmonella enterica serovar Typhimurium SL1344
Experiment: bacterial growth OD600 after 18 h with compound and polymyxin B; higher = more bacterial growth (less inhibition)
Conditions: 50 µM, Mueller-Hinton broth

| SMILES | bacterial growth OD600 (polymyxin B 1 µg/mL) | bacterial growth OD600 (polymyxin B 0.75 µg/mL) |
| --- | --- | --- |
| CCOc1ccccc1N1CCN(Cc2nc(Cc3ccc(OC)c(OC)c3)no2)CC1 | 1.06 |  |
| CCO[C@H]1[C@H](NC(=O)c2cccnc2)c2ccccc2C12CCN(C(=O)c1ccc(C)cc1C)CC2 |  | 0.836 |
| Cc1ncccc1C(=O)N1CCC(C2CCN(Cc3cccc(F)c3F)CC2)C1 (centres undefined) |  | 0.809 |
| Cc1ccc(C)c(-n2cc(CN(C)CCO)c(-c3ccccc3)n2)c1 | 0.933 |  |
| COCCN1C(=O)CC(CC(=O)N2CCCC2c2ccccc2OC)(c2ccccc2OC)C1=O (centres undefined) |  | 0.847 |
| COC(=O)CCC(=O)N1CCc2c([nH]c3ccccc23)C1c1ccccc1F (centres undefined) | 0.019 |  |
| CN(CCOc1ccccc1)C(=O)Cn1cc(NC(=O)CCC(=O)c2ccccc2)cn1 |  | 0.715 |
| COc1ccccc1OC1CCN(C(=O)c2ccc(-n3cc(NC(=O)c4ccoc4)cn3)cc2)CC1 |  | 0.698 |
| COCCN(Cc1ccccn1)C(Cc1ccccc1)C1CCN(Cc2cccc(OC)c2O)CC1 (centres undefined) |  | 0.81 |
| O[C@@H]1CN(Cc2c(F)cccc2Cl)CC[C@H]1N1CCN(c2ccccn2)CC1 |  | 0.826 |
| COc1ccc(/C=C/C(=O)N2CCCC(N(C)Cc3ccccc3)C2)cc1OC (centres undefined) | 0.924 |  |
| Cc1c[nH]c(CN(C)C(=O)CC(c2cccc(O)c2)c2ccccc2Cl)n1 (centres undefined) | 0.764 |  |
| CCOC(=O)C1(CCCc2ccccc2)CCN(C(=O)c2cc(C(C)=O)n[nH]2)CC1 | 0.523 |  |
| CCOC(=O)C1(CC2CCCCO2)CCN(C(=O)c2cc3c(nc2Cl)CCC3)CC1 (centres undefined) | 0.947 |  |
| O=C(c1cn(Cc2ccc(F)cc2Cl)nn1)N1CCOCC1 | 0.952 |  |
| CCOC(=O)CC1CCCCN1C(=O)CCC1(Cc2cc(OC)ccc2F)CCC(=O)N1 (centres undefined) |  | 0.794 |
| CC(NC(=O)C1(N(C)CCc2ccccc2)Cc2ccccc2C1)c1ncn[nH]1 (centres undefined) | 1.05 |  |
| COCC1CCN(C(=O)c2coc(COc3cccc(F)c3F)n2)C1 (centres undefined) | 0.802 |  |
| CCN1CCN(C2(C(=O)NCc3ccccn3)Cc3ccccc3C2)CC1 |  | 0.943 |

Entries of single compounds, looked up by structure.
CCOC(=O)C1(CC2CCCCO2)CCN(C(=O)c2cc3c(nc2Cl)CCC3)CC1 (centres undefined) as listed: bacterial growth OD600 (polymyxin B 1 µg/mL): 0.947
COC(=O)CCC(=O)N1CCc2c([nH]c3ccccc23)C1c1ccccc1F (centres undefined) as listed: bacterial growth OD600 (polymyxin B 1 µg/mL): 0.019
